# From PubChem BioAssay AID2685 (National Center for Advancing Translational Sciences (NCATS), 2010)
# The campaign covered roughly 320,000 compounds. About 2,100 (0.66%) were called active. This list was built around the results that the source calls inconclusive (neither active nor inactive); the mix of calls is not that of the screen. Calls come from the whole dose curve; as a rule, active = well fitted inhibition curve with a large enough effect in the signal ratio, with a control signal flat (not every such curve was filed as active); inconclusive = small, poorly fitted or top-dose-only effect, or effect the other way, or a change in a side signal; inactive = flat fitted curve, though single readings scatter; the % refers to the signal ratio. Potencies beside an inconclusive call are fits to weak or partial responses and may not hold up.
# Assay: qHTS Assay for Lipid Storage Modulators in Drosophila S3 Cells
# Conditions: BODIPY lipid droplet fluorescence, 18-24 h, cells fed with added oleic acid; lipid storage change, negative = inhibition: at 46.1 µM (top of the series) unless noted
# Summary of the method: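 Laser-scanning cytometry quantifies lipid droplet accumulation (500–530 nm total intensity; droplet/cell object ratio) in oleic acid-fed (400 uM added) Drosophila S3 cells treated with a concentration series. 20 uM Triacsin C defined 100% inhibition.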
# % is set by controls: 0 for no effect and ±100 for the full control effect; potency is the fitted concentration of half-maximal effect.
Structure (SMILES),Potency,"lipid storage change, negative = inhibition"
N#Cc1cc2ccccc2n2nnnc12,"inconclusive: 29.1 µM [falling, partial curve, poor fit]",
CCN(CC)C(=O)CP(=O)(c1ccccc1)c1ccccc1,,inconclusive: 39.1%
Cc1cc(NC(=O)CSc2nc(-c3ccco3)cc(C(F)(F)F)n2)no1,"inconclusive: 20.6 µM [falling, single point]",
CC1CCN(c2c(NCC3CCC(C(=O)Nc4ccccn4)CC3)c(=O)c2=O)CC1 (stereo not drawn),,inconclusive: 7.36%
O=C(NCc1ccccn1)c1nc(Cn2cc([N+](=O)[O-])cn2)no1,"inconclusive: 29.1 µM [falling, single point]",
CN(C(=O)COC(=O)CNC(=O)c1cccs1)c1c(N)n(Cc2ccccc2)c(=O)[nH]c1=O,"inconclusive: 0.206 µM [activator, full curve]",
COc1ccccc1CNC(=O)C[n+]1ccccc1,,inconclusive: -145%
O=C(NCCc1ccccc1)c1ccccc1NS(=O)(=O)N1CCCC1,,inconclusive: 68.4%
O=C(CC(c1ccco1)C1CCCCC1=O)c1ccco1 (stereo not drawn),"inconclusive: 0.58 µM [falling, full curve, poor fit]",
COc1ccc(S(=O)(=O)NCc2ccccn2)cc1NC(=O)c1ccccc1F,,inconclusive: -134%
CSc1cccc(NC(=O)N2CCCC(CNS(=O)(=O)Cc3ccccc3)C2)c1 (stereo not drawn),,inconclusive: 10.2%
CN(C)n1cccc1/C=C(\C#N)S(=O)(=O)c1cccc(Cl)c1,,inconclusive: 42.8%
COc1ccc(S(=O)(=O)N(c2onc(C)c2Cl)S(=O)(=O)c2ccc(OC)cc2)cc1,"inconclusive: 2.59 µM [falling, partial curve, poor fit]",
Cc1cc(/C=C2\SC(=S)NC2=O)cc(C)c1O,,inconclusive: -4.31%
CC1=NC(C)(C)Cc2cc(C)c(C)cc21,,inconclusive: -0.738%
CCOC(=O)c1ccc(NC(=O)CCC2COc3ccccc3O2)cc1 (stereo not drawn),,inconclusive: 17.7%
O=C(NCc1ccc(F)cc1)C(c1ccccc1)c1ccccc1,"inconclusive: 4.11 µM [falling, full curve, poor fit]",
CCOc1ccc(NC(=O)C2C3CCC4C(CCC32)C4(Cl)Cl)cc1 (stereo not drawn),,inconclusive: 4.78%
Cn1c(-c2ccccc2)cnc1NCc1cc2c(cc1[N+](=O)[O-])OCO2,"inconclusive: 0.366 µM [rising, full curve, poor fit]",
Cc1cccc(Cc2ccc(Cl)nn2)c1,,inconclusive: 20.7%
COc1ccc(N2C(=O)c3ccc(C(=O)Nc4cc(OC)ccc4OC)cc3C2=O)cc1,,inconclusive: 45.7%
CCOc1cc(/C=N\NC(=O)c2ccc(NC(=O)C(C)(C)C)cc2)ccc1OC(=O)c1cccc(C)c1,,inconclusive: 11%
COc1cnc(SCCC(F)=C(F)F)[nH]c1=O,,inconclusive: 1.5%
Cc1cc2oc(=O)cc(CN(C)Cc3ccc(OC(F)F)cc3)c2cc1Cl,"inconclusive: 0.206 µM [activator, single point]",
COc1ccc(-c2nnc(SCC(=O)Nc3nc4ccccc4s3)n2C)cc1,,inconclusive: -145%
COc1ccc(/C=C/C(=O)c2cc(Br)ccc(=O)c2O)cc1,"inconclusive: 32.6 µM [falling, single point]",

# Random excerpt: six compounds from above
Structure (SMILES),Potency,"lipid storage change, negative = inhibition"
Cc1cc2oc(=O)cc(CN(C)Cc3ccc(OC(F)F)cc3)c2cc1Cl,"inconclusive: 0.206 µM [activator, single point]",
CC1=NC(C)(C)Cc2cc(C)c(C)cc21,,inconclusive: -0.738%
CN(C(=O)COC(=O)CNC(=O)c1cccs1)c1c(N)n(Cc2ccccc2)c(=O)[nH]c1=O,"inconclusive: 0.206 µM [activator, full curve]",
CC1CCN(c2c(NCC3CCC(C(=O)Nc4ccccn4)CC3)c(=O)c2=O)CC1 (stereo not drawn),,inconclusive: 7.36%
Cc1cc(/C=C2\SC(=S)NC2=O)cc(C)c1O,,inconclusive: -4.31%
CCOc1cc(/C=N\NC(=O)c2ccc(NC(=O)C(C)(C)C)cc2)ccc1OC(=O)c1cccc(C)c1,,inconclusive: 11%

# Continuation.

Structure (SMILES),Potency,"lipid storage change, negative = inhibition"
Nc1nonc1C(=O)N/N=C/c1cc2c(cc1[N+](=O)[O-])OCO2,"inconclusive: 0.116 µM [falling, single point]",
NC(=O)C1CCCN1 (stereo not drawn),,inconclusive: -12.7%
CC(C)CNC(=O)COC(=O)/C=C/c1ccccc1[N+](=O)[O-],,inconclusive: 3.4%
CC1Cc2ccccc2N1C(=O)CSc1nc2ccccc2o1 (stereo not drawn),"inconclusive: 2.31 µM [activator, partial curve]",
COCCCn1c(SCC(=O)NC2CCCCC2)nnc1-c1ccco1,,inconclusive: 0.961%
CC(Oc1ccc(F)cc1)C(=O)Nc1ccc2ccccc2c1 (stereo not drawn),,inconclusive: 42.8%
CN(C)c1ccc(-c2nnc(-c3ccc(S(=O)(=O)C(F)F)cc3)o2)cc1,"inconclusive: 1.84 µM [activator, partial curve]",
COc1ccc2ccccc2c1/C=N/Nc1ccc(Cl)c(C(=O)O)c1,"inconclusive: 7.31 µM [activator, partial curve]",
O=C(Nc1ccccc1)c1ccccc1CC[N+](=O)[O-],,inconclusive: 31.8%
COc1ccc(NC(=O)CSc2nccn2Cc2ccc(F)cc2)cc1,"inconclusive: 6.51 µM [activator, partial curve, poor fit]",
Cc1cc(-c2c(C)n([O-])c(C)c(C)[n+]2=O)ccc1F,"inconclusive: 6.51 µM [activator, single point]",
Cc1ccnc(NC(=O)c2cc(S(=O)(=O)N3CCCCC3)ccc2Cl)c1,,inconclusive: 35.5%
CC(=O)c1cccc(NC(=O)COc2ccc(S(=O)(=O)N3CCCCC3)cc2)c1,,inactive: 13.1%
Cc1ccc(SCC(=O)OCC(=O)NC2CCCCCC2)cc1,,inconclusive: -38%
CC(C)(C)c1ccc(C(=O)NC(=S)Nc2sc3c(c2C#N)CCC3)cc1,,inconclusive: 5.68%
CCOc1ccc(-c2cc(C(=O)N/N=C/c3cccnc3)c3ccccc3n2)cc1,"inconclusive: 29.1 µM [falling, partial curve, poor fit]",
CN1CCN(CCCCC(=O)c2ccccc2)CC1,,inconclusive: -29%
COc1ccc(C)cc1NC(=O)CCc1ccc(S(=O)(=O)N2CCOCC2)cc1,"inconclusive: 32.6 µM [falling, single point]",
CCOP(=O)(OCC)c1nc(-c2ccc(OC)cc2)oc1N1CCOCC1,,inconclusive: -0.329%
Cc1ccc(C(=O)NCc2ccc(F)cc2)cc1NC1=NC2CS(=O)(=O)CC2S1 (stereo not drawn),,inconclusive: 11.2%
O=[N+]([O-])c1ccc(N/N=C\c2ccccc2OCc2ccccc2)cc1,,inconclusive: 11.6%
CC1CC(C)CN(CCCNC(=O)CCNC(=O)Cn2cnc3ccccc3c2=O)C1 (stereo not drawn),"inconclusive: 1.46 µM [falling, partial curve, poor fit]",
Nc1ccccc1C(=O)NCc1ccc(Cl)cc1,,inconclusive: 0.585%
O=C(COC(=O)Cc1ccc(F)cc1)NCc1ccco1,,inconclusive: -28%
COc1ccc(C)cc1NC(=O)CN1C(=O)C(=O)N(C2CCCC2)C1=O,,inconclusive: -66.2%
Cc1ccc(C(=O)NCCCNC(=O)c2cccnc2)cc1,,inconclusive: -2.43%

Structure (SMILES),Potency,"lipid storage change, negative = inhibition"
COc1ccc(C(C)=O)cc1COC(=O)c1cccnc1Cl,,inactive: -19.8%
Cc1c2cnn(CC(=O)NCc3ccccn3)c(=O)c2c(C)n1Cc1ccc(Cl)cc1,,inconclusive: -6.44%
CCOc1ccc(CNc2ccc3c(c2)nc(C)n3C)cc1,"inconclusive: 2.31 µM [rising, partial curve]",
O=C(Nc1ccc(N2CCCC2)cc1)c1cc(Br)ccc1Cl,,inconclusive: -12.3%
N#Cc1c2c(c(Nc3ccc(O)cc3)n3c1nc1ccccc13)CCC2,"inconclusive: 0.103 µM [falling, full curve]",
O=[N+]([O-])c1ccc(N=Nc2c(O)[nH]c3ccc(F)cc23)cc1,,inconclusive: -123%
CCCCSc1nnc([C@@H]2CCCN2C(=O)OC(C)(C)C)o1,,inactive: 11.2%
Cc1nnc(SCc2c(Cl)cccc2[N+](=O)[O-])s1,,inconclusive: 13.5%
COCCn1c(C)c(C)c2c(NCCc3ccccc3)ncnc21,,inconclusive: 81.7%
Cn1c(=O)c2c(nc(N3CCOCC3)n2CC(=O)c2ccccc2)n(C)c1=O,,inconclusive: 5.98%
FC(F)(F)c1ccccc1NC(=S)NN=C1CCCCCC1,"inconclusive: 0.82 µM [activator, single point]",
COc1ccc(OC)c(NC(=O)Cn2nc(C)c3ccccc3c2=O)c1,,inconclusive: 13.1%
CCOC(=O)N1CCN(CC(=O)Nc2ccc(C)c(Br)c2)CC1,,inconclusive: 131%
Cn1cc(CN2CCCC(CNS(=O)(=O)c3cccc4cccnc34)C2)cn1 (stereo not drawn),,inconclusive: 13.4%
COC(=O)C1=CN(c2cccc(C(F)(F)F)c2)C=C(C(=O)OC)C1c1ccc(O)c(OC)c1,,inactive: 2.64%
Cc1ccc(-c2csc(NC(=O)c3ccc(-c4ccccc4)cc3)n2)o1,,inconclusive: -3.7%
CC(=O)Nc1nnc(COc2ccc(Cl)cc2)s1,,inconclusive: 24.9%
Cc1nc2c(Br)cc(Br)cc2cc1O,,inconclusive: 9.47%
Cc1c(CCC(=O)NCCC(=O)O)c(=O)oc2cc3occ(-c4ccccc4)c3cc12,,inconclusive: -49%
Cc1cccc(-c2noc(CNC(=O)c3ccco3)n2)c1,"inconclusive: 0.231 µM [activator, full curve, poor fit]",
O=C(Cc1ccccc1)N/N=C/c1ccccc1F,,inconclusive: 1.85%
CCC(CC)C(=O)Nc1ccc(Sc2ccc([N+](=O)[O-])cc2)cc1,"inconclusive: 3.66 µM [falling, single point]",
CCOc1ccc(CCNC(=O)c2cccc(NC3=NC4CS(=O)(=O)CC4S3)c2)cc1OCC (stereo not drawn),,inconclusive: 19.2%
CCc1ccc(NC(=O)C(=O)NCCN2CCN(Cc3ccc([N+](=O)[O-])cc3)CC2)cc1,,inconclusive: 6.24%
COc1ccc(NS(=O)(=O)c2cccc(C(=O)NNC(=O)c3cc(C)oc3C)c2)cc1,,inconclusive: -5.38%
O=C(COc1ccc2c(-c3ccccc3)cc(=O)oc2c1)NCc1ccccn1,"inconclusive: 25.9 µM [falling, partial curve]",
